# Experimental data published in the supplement of paper PMC11438910.
# The other results are listed elsewhere or left out. Only a few entries rise above the background.
# Tests used:
# Assay in all cases: fluorescence intensity of antibody binding to polysaccharide-coupled beads; higher = stronger binding
# [1] = biological target: pneumococcal polysaccharide Pn35C
# [2] = biological target: pneumococcal polysaccharide Pn35F
# [3] = biological target: pneumococcal polysaccharide Pn36
# [4] = biological target: pneumococcal polysaccharide Pn37
# [5] = biological target: pneumococcal polysaccharide Pn38
# [6] = biological target: pneumococcal polysaccharide Pn39
# [7] = biological target: pneumococcal polysaccharide Pn4
# [8] = biological target: pneumococcal polysaccharide Pn40
# [9] = biological target: pneumococcal polysaccharide Pn41A
# [10] = biological target: pneumococcal polysaccharide Pn41F
# [11] = biological target: pneumococcal polysaccharide Pn42
# [12] = biological target: pneumococcal polysaccharide Pn43
# [13] = biological target: pneumococcal polysaccharide Pn44
# [14] = biological target: pneumococcal polysaccharide Pn45
# [15] = biological target: pneumococcal polysaccharide Pn46
# [16] = biological target: pneumococcal polysaccharide Pn47A
# [17] = biological target: pneumococcal polysaccharide Pn47F
# [18] = biological target: pneumococcal polysaccharide Pn48
# [19] = biological target: pneumococcal polysaccharide Pn5
# [20] = biological target: pneumococcal polysaccharide Pn6A
# [21] = biological target: pneumococcal polysaccharide Pn6B
# [22] = biological target: pneumococcal polysaccharide Pn6C
# [23] = biological target: pneumococcal polysaccharide Pn6D
# [24] = biological target: pneumococcal polysaccharide Pn7A
# [25] = antibody concentration 2337.65 ng/mL
# [26] = antibody concentration 12500 ng/mL
# [27] = antibody concentration 0.1 ng/mL
# [28] = antibody concentration 0.534724 ng/mL
# [29] = antibody concentration 2.8593 ng/mL
# [30] = antibody concentration 15.2894 ng/mL
# [31] = antibody concentration 81.7561 ng/mL
# [32] = antibody concentration 437.17 ng/mL
binder,measurement,setting,value
4-80.1 (protein) chain 1: QVQLQESGPGLVKPSETLSLTCAVSGIPISTYWWSWIRQTPEKGLEWIGEIDGNGGGTNYNPSLQSRVTFSKDASKNQFSLRLNSVTAADTAVFYCARLWGNAYWGQGVLVTVSS chain 2: DVVMTQSPLSLPINPGQPASISCRSSQSLVYSDGKTYLTWYQQKPGQPPRRLIYQVSKRDSGVPDRFSGSGAGTDFTLKISRVESEDVGIYYCLQGTHLPYTFGQGTKVEIK,fluorescence intensity,[1]; [25],222 MFI
same,fluorescence intensity,[1]; [26],288 MFI
same,fluorescence intensity,[2]; [27],18.5 MFI
same,fluorescence intensity,[2]; [28],19 MFI
same,fluorescence intensity,[2]; [29],17.8 MFI
same,fluorescence intensity,[2]; [30],19.8 MFI
same,fluorescence intensity,[2]; [31],23.8 MFI
same,fluorescence intensity,[2]; [32],45 MFI
same,fluorescence intensity,[2]; [25],77.5 MFI
same,fluorescence intensity,[2]; [26],111 MFI
same,fluorescence intensity,[3]; [27],15.5 MFI
same,fluorescence intensity,[3]; [28],19.5 MFI
same,fluorescence intensity,[3]; [29],38 MFI
same,fluorescence intensity,[3]; [30],157 MFI
same,fluorescence intensity,[3]; [31],640 MFI
same,fluorescence intensity,[3]; [32],1470 MFI
same,fluorescence intensity,[3]; [25],1880 MFI
same,fluorescence intensity,[3]; [26],2040 MFI
same,fluorescence intensity,[4]; [27],25.5 MFI
same,fluorescence intensity,[4]; [28],27.5 MFI
same,fluorescence intensity,[4]; [29],26 MFI
same,fluorescence intensity,[4]; [30],26 MFI
same,fluorescence intensity,[4]; [31],31 MFI
same,fluorescence intensity,[4]; [32],62.5 MFI
same,fluorescence intensity,[4]; [25],188 MFI
same,fluorescence intensity,[4]; [26],443 MFI
same,fluorescence intensity,[5]; [27],25 MFI
same,fluorescence intensity,[5]; [28],25.5 MFI
same,fluorescence intensity,[5]; [29],26 MFI
same,fluorescence intensity,[5]; [30],27 MFI
same,fluorescence intensity,[5]; [31],28.5 MFI
same,fluorescence intensity,[5]; [32],47.5 MFI
same,fluorescence intensity,[5]; [25],68.5 MFI
same,fluorescence intensity,[5]; [26],96.8 MFI
same,fluorescence intensity,[6]; [27],18 MFI
same,fluorescence intensity,[6]; [28],18 MFI
same,fluorescence intensity,[6]; [29],18 MFI
same,fluorescence intensity,[6]; [30],22.5 MFI
same,fluorescence intensity,[6]; [31],56 MFI
same,fluorescence intensity,[6]; [32],380 MFI
same,fluorescence intensity,[6]; [25],865 MFI
same,fluorescence intensity,[6]; [26],1170 MFI
same,fluorescence intensity,[7]; [27],17 MFI
same,fluorescence intensity,[7]; [28],18.5 MFI
same,fluorescence intensity,[7]; [29],19.8 MFI
same,fluorescence intensity,[7]; [30],23 MFI
same,fluorescence intensity,[7]; [31],41 MFI
same,fluorescence intensity,[7]; [32],148 MFI
same,fluorescence intensity,[7]; [25],300 MFI
same,fluorescence intensity,[7]; [26],450 MFI
same,fluorescence intensity,[8]; [27],18 MFI
same,fluorescence intensity,[8]; [28],16 MFI
same,fluorescence intensity,[8]; [29],17 MFI
same,fluorescence intensity,[8]; [30],17.5 MFI
same,fluorescence intensity,[8]; [31],18 MFI
same,fluorescence intensity,[8]; [32],38.2 MFI
same,fluorescence intensity,[8]; [25],103 MFI
same,fluorescence intensity,[8]; [26],229 MFI
same,fluorescence intensity,[9]; [27],22.2 MFI
same,fluorescence intensity,[9]; [28],22.5 MFI
same,fluorescence intensity,[9]; [29],23.5 MFI
same,fluorescence intensity,[9]; [30],25 MFI
same,fluorescence intensity,[9]; [31],30.5 MFI
same,fluorescence intensity,[9]; [32],93.5 MFI
same,fluorescence intensity,[9]; [25],275 MFI
same,fluorescence intensity,[9]; [26],492 MFI
same,fluorescence intensity,[10]; [27],12 MFI
same,fluorescence intensity,[10]; [28],14.5 MFI
same,fluorescence intensity,[10]; [29],24 MFI
same,fluorescence intensity,[10]; [30],101 MFI
same,fluorescence intensity,[10]; [31],522 MFI
same,fluorescence intensity,[10]; [32],1670 MFI
same,fluorescence intensity,[10]; [25],2450 MFI
same,fluorescence intensity,[10]; [26],2730 MFI
same,fluorescence intensity,[11]; [27],11 MFI
same,fluorescence intensity,[11]; [28],12 MFI
same,fluorescence intensity,[11]; [29],11 MFI
same,fluorescence intensity,[11]; [30],11.2 MFI
same,fluorescence intensity,[11]; [31],12 MFI
same,fluorescence intensity,[11]; [32],17.5 MFI
same,fluorescence intensity,[11]; [25],33.5 MFI
same,fluorescence intensity,[11]; [26],64.5 MFI
same,fluorescence intensity,[12]; [27],14.8 MFI
same,fluorescence intensity,[12]; [28],15 MFI
same,fluorescence intensity,[12]; [29],16 MFI
same,fluorescence intensity,[12]; [30],19 MFI
same,fluorescence intensity,[12]; [31],34.2 MFI
same,fluorescence intensity,[12]; [32],93.5 MFI
same,fluorescence intensity,[12]; [25],225 MFI
same,fluorescence intensity,[12]; [26],473 MFI
same,fluorescence intensity,[13]; [27],25.5 MFI
same,fluorescence intensity,[13]; [28],24.5 MFI
same,fluorescence intensity,[13]; [29],24.5 MFI
same,fluorescence intensity,[13]; [30],25.5 MFI
same,fluorescence intensity,[13]; [31],26 MFI
same,fluorescence intensity,[13]; [32],40 MFI
same,fluorescence intensity,[13]; [25],86 MFI
same,fluorescence intensity,[13]; [26],178 MFI
same,fluorescence intensity,[14]; [27],11 MFI
same,fluorescence intensity,[14]; [28],11 MFI
same,fluorescence intensity,[14]; [29],11.5 MFI
same,fluorescence intensity,[14]; [30],11 MFI
same,fluorescence intensity,[14]; [31],14 MFI
same,fluorescence intensity,[14]; [32],36.5 MFI
same,fluorescence intensity,[14]; [25],112 MFI
same,fluorescence intensity,[14]; [26],247 MFI
same,fluorescence intensity,[15]; [27],24.2 MFI
same,fluorescence intensity,[15]; [28],25 MFI
same,fluorescence intensity,[15]; [29],29 MFI
same,fluorescence intensity,[15]; [30],86.2 MFI
same,fluorescence intensity,[15]; [31],457 MFI
same,fluorescence intensity,[15]; [32],1680 MFI
same,fluorescence intensity,[15]; [25],2670 MFI
same,fluorescence intensity,[15]; [26],3200 MFI
same,fluorescence intensity,[16]; [27],17 MFI
same,fluorescence intensity,[16]; [28],15.5 MFI
same,fluorescence intensity,[16]; [29],16.8 MFI
same,fluorescence intensity,[16]; [30],22 MFI
same,fluorescence intensity,[16]; [31],102 MFI
same,fluorescence intensity,[16]; [32],574 MFI
same,fluorescence intensity,[16]; [25],1160 MFI
same,fluorescence intensity,[16]; [26],1440 MFI
same,fluorescence intensity,[17]; [27],11.5 MFI
same,fluorescence intensity,[17]; [28],11 MFI
same,fluorescence intensity,[17]; [29],12.5 MFI
same,fluorescence intensity,[17]; [30],12.5 MFI
same,fluorescence intensity,[17]; [31],28.5 MFI
same,fluorescence intensity,[17]; [32],146 MFI
same,fluorescence intensity,[17]; [25],376 MFI
same,fluorescence intensity,[17]; [26],604 MFI
same,fluorescence intensity,[18]; [27],20.5 MFI
same,fluorescence intensity,[18]; [28],20.5 MFI
same,fluorescence intensity,[18]; [29],23.5 MFI
same,fluorescence intensity,[18]; [30],25.5 MFI
same,fluorescence intensity,[18]; [31],48.5 MFI
same,fluorescence intensity,[18]; [32],294 MFI
same,fluorescence intensity,[18]; [25],753 MFI
same,fluorescence intensity,[18]; [26],1100 MFI
same,fluorescence intensity,[19]; [27],9 MFI
same,fluorescence intensity,[19]; [28],9.75 MFI
same,fluorescence intensity,[19]; [29],9 MFI
same,fluorescence intensity,[19]; [30],13.5 MFI
same,fluorescence intensity,[19]; [31],52 MFI
same,fluorescence intensity,[19]; [32],293 MFI
same,fluorescence intensity,[19]; [25],575 MFI
same,fluorescence intensity,[19]; [26],789 MFI
same,fluorescence intensity,[20]; [27],20.5 MFI
same,fluorescence intensity,[20]; [28],22.5 MFI
same,fluorescence intensity,[20]; [29],22.5 MFI
same,fluorescence intensity,[20]; [30],31.5 MFI
same,fluorescence intensity,[20]; [31],108 MFI
same,fluorescence intensity,[20]; [32],566 MFI
same,fluorescence intensity,[20]; [25],1090 MFI
same,fluorescence intensity,[20]; [26],1490 MFI
same,fluorescence intensity,[21]; [27],20.5 MFI
same,fluorescence intensity,[21]; [28],19.8 MFI
same,fluorescence intensity,[21]; [29],20.8 MFI
same,fluorescence intensity,[21]; [30],28 MFI
same,fluorescence intensity,[21]; [31],78.2 MFI
same,fluorescence intensity,[21]; [32],348 MFI
same,fluorescence intensity,[21]; [25],614 MFI
same,fluorescence intensity,[21]; [26],801 MFI
same,fluorescence intensity,[22]; [27],16.5 MFI
same,fluorescence intensity,[22]; [28],17.5 MFI
same,fluorescence intensity,[22]; [29],17 MFI
same,fluorescence intensity,[22]; [30],18 MFI
same,fluorescence intensity,[22]; [31],22.5 MFI
same,fluorescence intensity,[22]; [32],208 MFI
same,fluorescence intensity,[22]; [25],622 MFI
same,fluorescence intensity,[22]; [26],1040 MFI
same,fluorescence intensity,[23]; [27],16.5 MFI
same,fluorescence intensity,[23]; [28],17 MFI
same,fluorescence intensity,[23]; [29],19 MFI
same,fluorescence intensity,[23]; [30],26 MFI
same,fluorescence intensity,[23]; [31],97.8 MFI
same,fluorescence intensity,[23]; [32],520 MFI
same,fluorescence intensity,[23]; [25],990 MFI
same,fluorescence intensity,[23]; [26],1270 MFI
same,fluorescence intensity,[24]; [27],20 MFI
same,fluorescence intensity,[24]; [28],20 MFI

# 3 entries from above, set out differently:
binder	measurement	setting	value
4-80.1 (protein) chain 1: QVQLQESGPGLVKPSETLSLTCAVSGIPISTYWWSWIRQTPEKGLEWIGEIDGNGGGTNYNPSLQSRVTFSKDASKNQFSLRLNSVTAADTAVFYCARLWGNAYWGQGVLVTVSS chain 2: DVVMTQSPLSLPINPGQPASISCRSSQSLVYSDGKTYLTWYQQKPGQPPRRLIYQVSKRDSGVPDRFSGSGAGTDFTLKISRVESEDVGIYYCLQGTHLPYTFGQGTKVEIK	fluorescence intensity	[1]; [25]	222 MFI
same	fluorescence intensity	[13]; [31]	26 MFI
same	fluorescence intensity	[23]; [30]	26 MFI
